From the supplement of paper PMC6411743
± gives the standard deviation of the averaged measurements. The list shows a part of the results, in another mix than the full data.

Amino acid sequences for entries named in this document (tags omitted). A change or cut given only in a name is not applied to a line headed by its entry.
UniProt Q6PJG6: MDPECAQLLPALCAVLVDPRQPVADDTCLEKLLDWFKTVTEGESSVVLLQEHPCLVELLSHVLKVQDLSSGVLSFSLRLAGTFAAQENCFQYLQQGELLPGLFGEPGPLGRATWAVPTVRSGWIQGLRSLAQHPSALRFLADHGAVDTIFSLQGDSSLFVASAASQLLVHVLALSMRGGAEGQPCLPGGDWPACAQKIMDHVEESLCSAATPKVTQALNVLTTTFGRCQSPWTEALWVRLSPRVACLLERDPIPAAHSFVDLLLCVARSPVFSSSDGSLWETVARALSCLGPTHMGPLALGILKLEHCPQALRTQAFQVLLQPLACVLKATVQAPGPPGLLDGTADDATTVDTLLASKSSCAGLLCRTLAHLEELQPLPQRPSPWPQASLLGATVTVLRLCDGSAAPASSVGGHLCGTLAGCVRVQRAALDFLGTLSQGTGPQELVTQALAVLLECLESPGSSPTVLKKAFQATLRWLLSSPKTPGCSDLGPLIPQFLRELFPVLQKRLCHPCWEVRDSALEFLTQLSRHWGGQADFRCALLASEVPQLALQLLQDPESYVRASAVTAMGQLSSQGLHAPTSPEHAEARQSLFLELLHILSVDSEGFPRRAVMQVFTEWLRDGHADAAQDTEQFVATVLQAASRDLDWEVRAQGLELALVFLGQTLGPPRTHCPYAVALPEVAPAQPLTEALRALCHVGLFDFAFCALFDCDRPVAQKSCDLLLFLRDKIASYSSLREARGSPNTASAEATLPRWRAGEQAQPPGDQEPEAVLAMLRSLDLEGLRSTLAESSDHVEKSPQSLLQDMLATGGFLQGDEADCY
UniProt Q5VTR2, whole entry: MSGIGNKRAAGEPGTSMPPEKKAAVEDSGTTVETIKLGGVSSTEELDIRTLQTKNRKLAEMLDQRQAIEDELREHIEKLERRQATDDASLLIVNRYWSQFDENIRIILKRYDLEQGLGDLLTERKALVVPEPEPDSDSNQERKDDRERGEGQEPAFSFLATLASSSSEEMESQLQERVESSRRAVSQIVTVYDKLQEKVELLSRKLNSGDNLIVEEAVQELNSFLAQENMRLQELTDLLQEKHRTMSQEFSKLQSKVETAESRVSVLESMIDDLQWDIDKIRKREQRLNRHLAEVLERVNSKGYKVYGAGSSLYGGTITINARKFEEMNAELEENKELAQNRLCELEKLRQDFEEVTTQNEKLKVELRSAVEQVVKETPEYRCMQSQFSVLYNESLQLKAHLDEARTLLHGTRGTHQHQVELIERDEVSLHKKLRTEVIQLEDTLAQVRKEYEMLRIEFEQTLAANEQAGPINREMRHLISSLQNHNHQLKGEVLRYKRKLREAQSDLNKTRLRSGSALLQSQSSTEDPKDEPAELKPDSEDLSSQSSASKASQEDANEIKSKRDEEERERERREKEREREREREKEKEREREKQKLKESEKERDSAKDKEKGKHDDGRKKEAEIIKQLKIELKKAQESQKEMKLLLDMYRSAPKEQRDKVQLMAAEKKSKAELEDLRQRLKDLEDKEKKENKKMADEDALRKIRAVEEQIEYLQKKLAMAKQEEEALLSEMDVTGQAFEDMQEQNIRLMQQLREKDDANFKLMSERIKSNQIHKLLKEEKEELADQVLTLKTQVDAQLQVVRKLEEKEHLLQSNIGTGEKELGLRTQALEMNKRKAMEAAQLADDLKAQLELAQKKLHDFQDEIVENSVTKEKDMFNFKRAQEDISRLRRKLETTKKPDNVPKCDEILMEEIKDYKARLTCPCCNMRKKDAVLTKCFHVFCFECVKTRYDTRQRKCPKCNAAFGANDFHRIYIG
UniProt Q7Z2Z2: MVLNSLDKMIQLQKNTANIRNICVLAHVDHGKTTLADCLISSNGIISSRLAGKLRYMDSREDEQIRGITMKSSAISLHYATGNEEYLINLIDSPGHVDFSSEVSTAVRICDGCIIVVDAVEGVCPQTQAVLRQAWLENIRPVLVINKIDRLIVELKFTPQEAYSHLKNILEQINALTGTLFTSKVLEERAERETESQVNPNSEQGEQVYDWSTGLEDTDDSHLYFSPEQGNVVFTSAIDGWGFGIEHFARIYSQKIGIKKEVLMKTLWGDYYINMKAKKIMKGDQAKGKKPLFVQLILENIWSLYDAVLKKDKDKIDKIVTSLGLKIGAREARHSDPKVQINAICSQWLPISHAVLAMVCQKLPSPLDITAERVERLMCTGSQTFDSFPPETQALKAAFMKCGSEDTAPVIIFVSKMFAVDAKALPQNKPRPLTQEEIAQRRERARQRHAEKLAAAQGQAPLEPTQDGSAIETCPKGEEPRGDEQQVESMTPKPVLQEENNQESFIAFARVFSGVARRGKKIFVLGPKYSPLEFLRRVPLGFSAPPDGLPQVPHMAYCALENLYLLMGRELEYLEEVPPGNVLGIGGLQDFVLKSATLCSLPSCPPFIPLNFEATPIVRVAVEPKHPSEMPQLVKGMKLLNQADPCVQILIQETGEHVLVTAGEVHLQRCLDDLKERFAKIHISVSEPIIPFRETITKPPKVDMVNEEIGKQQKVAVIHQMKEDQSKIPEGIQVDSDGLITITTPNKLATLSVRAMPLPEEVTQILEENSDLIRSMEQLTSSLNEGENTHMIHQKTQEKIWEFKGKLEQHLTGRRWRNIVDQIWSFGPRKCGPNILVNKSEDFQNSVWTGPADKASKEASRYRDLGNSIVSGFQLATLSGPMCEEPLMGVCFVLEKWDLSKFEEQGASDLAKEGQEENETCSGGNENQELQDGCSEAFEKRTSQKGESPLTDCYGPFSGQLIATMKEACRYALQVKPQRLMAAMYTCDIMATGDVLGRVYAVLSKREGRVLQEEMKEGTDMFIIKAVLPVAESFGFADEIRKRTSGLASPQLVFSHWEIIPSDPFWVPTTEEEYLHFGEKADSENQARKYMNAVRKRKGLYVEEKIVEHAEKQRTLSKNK
UniProt Q6ZVM7: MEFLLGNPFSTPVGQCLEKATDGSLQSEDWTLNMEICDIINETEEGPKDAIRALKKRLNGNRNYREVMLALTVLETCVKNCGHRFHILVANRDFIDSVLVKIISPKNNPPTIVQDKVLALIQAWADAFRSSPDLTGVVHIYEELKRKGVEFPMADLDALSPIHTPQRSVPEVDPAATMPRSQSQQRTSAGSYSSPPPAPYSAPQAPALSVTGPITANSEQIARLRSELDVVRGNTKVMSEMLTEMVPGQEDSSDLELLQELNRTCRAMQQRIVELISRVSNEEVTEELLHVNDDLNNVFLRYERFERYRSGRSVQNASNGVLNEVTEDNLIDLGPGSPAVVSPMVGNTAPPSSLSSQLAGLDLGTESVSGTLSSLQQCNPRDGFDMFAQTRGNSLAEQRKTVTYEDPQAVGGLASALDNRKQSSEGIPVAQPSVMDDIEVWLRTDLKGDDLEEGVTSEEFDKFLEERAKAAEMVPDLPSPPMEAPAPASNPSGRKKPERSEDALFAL
UniProt Q6IN84: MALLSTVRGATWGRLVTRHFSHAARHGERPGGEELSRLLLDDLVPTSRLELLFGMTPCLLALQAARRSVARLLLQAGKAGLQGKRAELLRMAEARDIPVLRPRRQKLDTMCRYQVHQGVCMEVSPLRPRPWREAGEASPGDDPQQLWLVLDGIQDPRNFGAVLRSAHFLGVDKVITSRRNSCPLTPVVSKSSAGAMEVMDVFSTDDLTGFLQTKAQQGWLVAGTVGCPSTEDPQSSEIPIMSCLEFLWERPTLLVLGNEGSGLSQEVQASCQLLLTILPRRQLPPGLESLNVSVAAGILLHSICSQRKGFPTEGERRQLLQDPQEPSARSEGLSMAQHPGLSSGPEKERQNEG
UniProt Q6PH81: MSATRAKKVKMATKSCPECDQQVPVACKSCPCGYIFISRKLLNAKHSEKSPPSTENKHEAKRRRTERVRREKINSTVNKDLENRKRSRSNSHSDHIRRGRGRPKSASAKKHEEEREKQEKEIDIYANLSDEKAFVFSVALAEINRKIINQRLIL
UniProt Q6ZWJ1: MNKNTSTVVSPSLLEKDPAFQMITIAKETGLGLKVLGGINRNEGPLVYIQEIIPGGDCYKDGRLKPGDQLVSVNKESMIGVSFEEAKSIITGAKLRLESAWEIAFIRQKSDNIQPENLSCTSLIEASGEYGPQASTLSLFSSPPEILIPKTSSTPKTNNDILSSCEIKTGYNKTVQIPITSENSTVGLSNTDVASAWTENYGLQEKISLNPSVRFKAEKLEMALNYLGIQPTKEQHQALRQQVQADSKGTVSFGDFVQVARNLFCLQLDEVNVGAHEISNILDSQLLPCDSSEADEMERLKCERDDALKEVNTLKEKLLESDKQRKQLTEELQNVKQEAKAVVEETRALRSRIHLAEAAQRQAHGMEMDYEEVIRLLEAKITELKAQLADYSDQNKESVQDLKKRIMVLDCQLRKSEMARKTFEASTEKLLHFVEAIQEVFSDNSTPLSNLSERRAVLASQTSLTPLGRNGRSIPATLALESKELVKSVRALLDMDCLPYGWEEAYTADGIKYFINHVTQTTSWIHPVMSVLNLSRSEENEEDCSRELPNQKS
UniProt Q7Z4L5: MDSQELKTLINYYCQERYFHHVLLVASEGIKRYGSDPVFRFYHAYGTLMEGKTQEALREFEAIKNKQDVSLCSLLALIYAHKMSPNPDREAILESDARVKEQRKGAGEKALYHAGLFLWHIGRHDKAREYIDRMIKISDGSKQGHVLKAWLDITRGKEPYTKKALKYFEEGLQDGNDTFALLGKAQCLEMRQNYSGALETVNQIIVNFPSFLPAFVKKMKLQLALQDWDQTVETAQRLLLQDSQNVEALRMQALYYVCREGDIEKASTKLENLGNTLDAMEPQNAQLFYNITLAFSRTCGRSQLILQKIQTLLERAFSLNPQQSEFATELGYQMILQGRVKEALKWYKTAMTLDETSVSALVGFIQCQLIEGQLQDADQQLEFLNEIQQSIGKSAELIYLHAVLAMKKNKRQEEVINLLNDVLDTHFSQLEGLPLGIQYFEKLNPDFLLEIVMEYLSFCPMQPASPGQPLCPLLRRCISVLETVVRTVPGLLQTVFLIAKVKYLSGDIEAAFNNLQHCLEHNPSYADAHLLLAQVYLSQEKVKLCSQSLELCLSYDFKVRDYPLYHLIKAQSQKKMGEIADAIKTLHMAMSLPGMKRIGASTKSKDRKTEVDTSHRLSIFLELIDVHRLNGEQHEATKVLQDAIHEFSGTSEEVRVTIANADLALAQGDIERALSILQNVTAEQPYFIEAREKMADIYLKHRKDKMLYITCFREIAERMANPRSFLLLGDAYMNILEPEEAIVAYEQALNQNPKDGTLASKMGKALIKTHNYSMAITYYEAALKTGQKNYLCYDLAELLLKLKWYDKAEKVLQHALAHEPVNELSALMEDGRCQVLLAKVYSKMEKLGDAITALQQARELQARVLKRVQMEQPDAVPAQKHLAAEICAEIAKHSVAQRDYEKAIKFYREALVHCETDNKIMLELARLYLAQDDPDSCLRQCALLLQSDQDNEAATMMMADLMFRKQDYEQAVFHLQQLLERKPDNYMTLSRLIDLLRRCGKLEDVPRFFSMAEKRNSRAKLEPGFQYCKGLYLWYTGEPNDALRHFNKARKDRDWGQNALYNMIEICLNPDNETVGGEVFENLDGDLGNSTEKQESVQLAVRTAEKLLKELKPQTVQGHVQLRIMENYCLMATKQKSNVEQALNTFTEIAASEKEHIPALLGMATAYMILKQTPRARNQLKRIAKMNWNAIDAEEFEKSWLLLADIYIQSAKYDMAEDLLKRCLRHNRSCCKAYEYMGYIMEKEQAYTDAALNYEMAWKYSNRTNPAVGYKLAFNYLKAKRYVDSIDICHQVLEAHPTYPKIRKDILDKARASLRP
UniProt Q7Z5R6: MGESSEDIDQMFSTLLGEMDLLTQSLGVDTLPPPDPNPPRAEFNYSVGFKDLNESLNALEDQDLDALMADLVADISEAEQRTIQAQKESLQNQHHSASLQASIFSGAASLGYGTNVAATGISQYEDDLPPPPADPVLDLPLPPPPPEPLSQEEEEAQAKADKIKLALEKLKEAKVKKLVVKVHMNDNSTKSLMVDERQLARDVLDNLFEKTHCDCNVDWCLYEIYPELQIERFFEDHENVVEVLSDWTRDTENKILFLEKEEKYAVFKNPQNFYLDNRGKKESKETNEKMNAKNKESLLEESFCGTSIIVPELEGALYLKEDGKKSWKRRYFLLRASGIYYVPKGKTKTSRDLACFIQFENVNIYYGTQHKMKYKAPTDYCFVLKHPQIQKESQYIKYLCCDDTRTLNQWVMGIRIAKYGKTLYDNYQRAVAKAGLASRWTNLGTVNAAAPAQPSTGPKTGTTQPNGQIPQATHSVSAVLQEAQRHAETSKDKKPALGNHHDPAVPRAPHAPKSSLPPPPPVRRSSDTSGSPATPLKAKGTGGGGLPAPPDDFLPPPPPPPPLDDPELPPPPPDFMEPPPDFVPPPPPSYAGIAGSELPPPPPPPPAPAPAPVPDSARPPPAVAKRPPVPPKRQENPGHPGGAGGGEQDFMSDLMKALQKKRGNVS

Compound: Nc1ncnc2c1ncn2[C@@H]1O[C@H](COP(=O)(O)OP(=O)(O)NP(=O)(O)O)[C@@H](O)[C@H]1O [adenylyl imidodiphosphate]
Assay: NP40-soluble protein abundance relative to vehicle (solubility fold change) (ratio); higher = more soluble protein in presence of AMP-PNP
Summary of the method: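 Across three independent experiments, values are fold changes against the detergent-processed vehicle for each replicate, based on vsn-normalised intensities. The samples were Jurkat crude lysate treated with eight concentrations (0.1 to 10 mM) for 10 min at room temperature and then 3 min at 37 °C. Lysate was solubilised with 0.8% NP40 and benzonase, ultracentrifuged, and the supernatant analysed by TMT-labelled LC-MS/MS.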

Target | NP40-soluble protein abundance (concentration: 1mM) | NP40-soluble protein abundance (concentration: 2mM) | NP40-soluble protein abundance (concentration: 4mM) | NP40-soluble protein abundance (concentration: 6mM) | NP40-soluble protein abundance (concentration: 8mM) | NP40-soluble protein abundance (concentration: 10mM)
SASS6 (UniProt Q6UVJ0) | 1.05 ± 0.011 | 1.05 ± 0.019 | 1.01 ± 0.027 | 1.01 ± 0.027 | 0.975 ± 0.019 | 1.01 ± 0.03
UniProt Q6IAA8 and related entries | 1.02 ± 0.025 | 1.04 ± 0.028 | 1.04 ± 0.047 | 0.992 ± 0.051 | 0.975 ± 0.017 | 0.966 ± 0.035
UniProt Q7L592 | 0.98 ± 0.025 | 0.951 ± 0.018 | 0.996 ± 0.034 | 1.007 ± 0.0097 | 1 ± 0.03 | 1.02 ± 0.014
UniProt Q6PJG6 | 0.987 ± 0.047 | 1 ± 0.037 | 0.977 ± 0.053 | 0.954 ± 0.052 | 0.924 ± 0.065 | 0.938 ± 0.091
UniProt Q6ZRS2 and related entries | 1.02 ± 0.05 | 1.14 ± 0.037 | 1.14 ± 0.047 | 1.19 ± 0.11 | 1.16 ± 0.086 | 1.25 ± 0.1
RNF20 (UniProt Q5VTR2) | 1.03 ± 0.011 | 1.06 ± 0.034 | 1.03 ± 0.017 | 1 ± 0.037 | 0.969 ± 0.015 | 0.994 ± 0.031
UniProt Q6UWE0 and related entries | 1 ± 0.019 | 0.974 ± 0.044 | 1.01 ± 0.017 | 0.977 ± 0.032 | 0.971 ± 0.028 | 0.996 ± 0.042
UniProt Q7Z2Z2 | 1.02 ± 0.0058 | 0.965 ± 0.041 | 1.01 ± 0.018 | 0.992 ± 0.01 | 0.985 ± 0.012 | 0.966 ± 0.022
UniProt Q6ZVM7 and related entries | 0.984 ± 0.027 | 0.987 ± 0.02 | 0.979 ± 0.032 | 0.973 ± 0.021 | 0.983 ± 0.011 | 0.973 ± 0.016
UniProt Q6ICB0 | 0.984 ± 0.017 | 0.991 ± 0.043 | 0.954 ± 0.037 | 0.993 ± 0.012 | 0.969 ± 0.014 | 0.979 ± 0.044
UniProt Q7KZ85 and related entries | 0.985 ± 0.03 | 0.931 ± 0.048 | 0.9691 ± 0.0085 | 0.9679 ± 0.0051 | 0.977 ± 0.013 | 0.971 ± 0.0087
MRM1 (UniProt Q6IN84) | 0.995 ± 0.028 | 1.01 ± 0.014 | 1.03 ± 0.016 | 1.06 ± 0.02 | 1.09 ± 0.035 | 1.14 ± 0.015
UniProt Q6PHR2 and related entries | 1.02 ± 0.022 | 0.99 ± 0.05 | 0.991 ± 0.021 | 1.01 ± 0.026 | 1.02 ± 0.052 | 1.02 ± 0.08
C16orf87 (UniProt Q6PH81) | 0.972 ± 0.021 | 1.03 ± 0.082 | 0.976 ± 0.035 | 1.01 ± 0.018 | 0.999 ± 0.045 | 1 ± 0.033
UniProt Q6NYC1 and related entries | 1 ± 0.031 | 0.991 ± 0.01 | 0.999 ± 0.011 | 1 ± 0.03 | 1.02 ± 0.033 | 1.02 ± 0.021
UniProt Q6ZWJ1 and related entries | 0.997 ± 0.043 | 1.03 ± 0.067 | 0.986 ± 0.028 | 0.975 ± 0.012 | 0.9969 ± 0.0047 | 0.985 ± 0.056
TTC21B (UniProt Q7Z4L5) | 0.973 ± 0.013 | 0.975 ± 0.026 | 0.97282 ± 0.00079 | 0.983 ± 0.035 | 1 ± 0.013 | 0.99 ± 0.034
UniProt Q6PIW4 and related entries | 0.968 ± 0.012 | 1 ± 0.023 | 0.981 ± 0.029 | 0.974 ± 0.018 | 0.935 ± 0.011 | 0.959 ± 0.017
APBB1IP (UniProt Q7Z5R6) | 0.985 ± 0.035 | 1.012 ± 0.0027 | 1.01 ± 0.03 | 0.988 ± 0.024 | 0.994 ± 0.034 | 0.972 ± 0.021
UniProt Q6Y1H2 | 0.994 ± 0.02 | 0.97 ± 0.039 | 0.947 ± 0.027 | 0.9917 ± 0.0076 | 0.984 ± 0.036 | 0.976 ± 0.027

Given as a markdown table: entries from further up

| Target | NP40-soluble protein abundance (concentration: 1mM) | NP40-soluble protein abundance (concentration: 2mM) | NP40-soluble protein abundance (concentration: 4mM) | NP40-soluble protein abundance (concentration: 6mM) | NP40-soluble protein abundance (concentration: 8mM) | NP40-soluble protein abundance (concentration: 10mM) |
| --- | --- | --- | --- | --- | --- | --- |
| RNF20 (UniProt Q5VTR2) | 1.03 ± 0.011 | 1.06 ± 0.034 | 1.03 ± 0.017 | 1 ± 0.037 | 0.969 ± 0.015 | 0.994 ± 0.031 |
| UniProt Q7Z2Z2 | 1.02 ± 0.0058 | 0.965 ± 0.041 | 1.01 ± 0.018 | 0.992 ± 0.01 | 0.985 ± 0.012 | 0.966 ± 0.022 |
| UniProt Q7KZ85 and related entries | 0.985 ± 0.03 | 0.931 ± 0.048 | 0.9691 ± 0.0085 | 0.9679 ± 0.0051 | 0.977 ± 0.013 | 0.971 ± 0.0087 |
| MRM1 (UniProt Q6IN84) | 0.995 ± 0.028 | 1.01 ± 0.014 | 1.03 ± 0.016 | 1.06 ± 0.02 | 1.09 ± 0.035 | 1.14 ± 0.015 |
